The inconclusive results got no clear call from the source; some entries with a clear call stand among them for comparison. Potencies beside an inconclusive call are fits to weak or partial responses and may not hold up. Calls of active or inactive are those of the source. Calls come from the whole dose curve; as a rule, active = well fitted inhibition curve with a large enough effect; inconclusive = small, poorly fitted or top-dose-only effect; inactive = no such curve, though single readings can be large or run the other way.
Each compound was assayed against Isocitrate dehydrogenase [NADP] cytoplasmic (Homo sapiens) (UniProt O75874) (assay: qHTS for Inhibitors of mutant isocitrate dehydrogenase 1 (IDH1): Confirmation of Cherrypicks). Conditions: IDH1 R132H enzyme, NADPH diaphorase/resazurin fluorescence; series mostly up to 76.6 µM; activity change, negative = inhibition: at the top concentration.
From the text: Malignant glioblastomas (WHO grade IV), including primary and secondary glioblastomas, are among the most lethal with a median survival of one year, and unfortunately they are also the most prevalent type of brain tumors. By and large the standard of care of gliomas remains the use of the oral alkylating agent temozolomide and radiotherapy following surgical tumor resection. There is an urgent unmet medical need for novel therapeutics for gliomas. IDH mutations occur in up to 70% of grade II-IV secondary glioblastomas, and IDH1 R132H is the most prevalent mutation. […] Wild-type IDH1 catalyzes the conversion of isocitrate to -ketoglutarate with the concomitant reduction of NADP+ to NADPH. In contrast, IDH1 R132H catalyzes the conversion of -ketoglutarate to 2-hydroxyglutarate (2-HG) with the concomitant oxidation of NADPH to NADP+ [5]. Recently, a second significant advancement for the field was the finding that IDH is an oncogene, and that its metabolic product 2-HG may contribute to the pathogenesis of IDH-mutated cancers. […] Although this link to cancer is tantalizing, the direct evidence of how 2-HG drives pathogenesis of gliomas and AML remains a subject of further research. The goal of this screen is to find small-molecule inhibitors of IDH1 R132H using a biochemical assay that measures substrate NADPH consumption through the use of a diaphorase/resazurin-coupled system. Inhibition of the IDH1 R132H enzymatic reaction leads to an increase in the amount of NADPH relative to a DMSO control and a concomitant increase in the fluorescence of the diaphorase/resazurin enzyme product resorufin at 590 nm. Compounds were screened as a concentration-titration series that ranged from 76 microM to 0.15 uM. NIH Molecular Libraries Probe Production Network [MLPCN] NIH Chemical Genomics Center [NCGC] MLSCN Grant: R03 DA032129 PI Name: Dr. Lenny Dang
Enzyme buffer was dispensed into black, solid 1536-well plates at 3 microL/well in 20 mM Tris buffer, pH 7.5, containing final concentrations of 10 mM MgCl2, 20 mM NaCl, 0.001% Tween20, 0.05% BSA, 2 mM beta-ME and 5.2 nM IDH1 R132H. Then, 23 nL of compounds or DMSO were delivered to each well using a pin tool. The inherent compound fluorescence was measured at this point at 590 nm on a ViewLux plate reader (Ex 525, Em 598, bodipy filter). The substrate buffer (3 uL; 20 mM Tris buffer, pH 7.5, containing final concentrations of 10 mM MgCl2, 20 mM NaCl, 0.001% Tween20, 0.05% BSA, 0.008 mM NADPH, and 1 mM a-ketoglutarate) was added to start the enzymatic reaction, and the plate was briefly spun at 270xg. After the reaction was allowed to progress for 80 minutes at room temperature, the remaining NADPH was detected with the diaphorase/resazurin-coupled system. Three microL of detection buffer (20 mM Tris buffer, pH 7.5, containing final concentrations of 10 mM MgCl2, 20 mM NaCl, 0.001% Tween20, 0.05% BSA, 0.53 uM diaphorase and 0.012 mM resazurin) was added, and after 5 minutes the fluorescence at 590 nm was measured on an Envision plate reader (Ex 544, Em 590, bodipy filter, 10 flashes). The %Activity was determined from the corrected fluorescence values. As no specific IDH1 R132H inhibitors have been identified in the literature, 1x (5.2 nM) and 0x IDH1 R132H enzyme controls (untreated) were included to normalize % Activity of identified inhibitors; 0x enzyme values corresponded to 100 % Activity (full inhibition), while 1x IDH1 R132H enzyme values were used to normalize 0 %A ctivity (no inhibition). Concentration-response curves were fitted to the signals arising from the resulting fluorescence. The concentration-response curves were then classified based on curve quality (r2), response magnitude and degree of measured activity, and compounds were subsequently categorized based on their curve class. […] Keywords: Isocitrate dehydrogenase, IDH1, IDH1 R132H, 2-HG, 2-hydroxyglutarate, AML, glioma, MLSMR, MLPCN, NIH Roadmap, qHTS, NCGC
Note: nearly all actives have a fitted effect of over 50% in size.
Potency is the fitted concentration of half-maximal effect.

Sequences of proteins named here, by UniProt entry; tags and fusion partners are left off.
UniProt O75874, whole entry R132H, stated change not applied: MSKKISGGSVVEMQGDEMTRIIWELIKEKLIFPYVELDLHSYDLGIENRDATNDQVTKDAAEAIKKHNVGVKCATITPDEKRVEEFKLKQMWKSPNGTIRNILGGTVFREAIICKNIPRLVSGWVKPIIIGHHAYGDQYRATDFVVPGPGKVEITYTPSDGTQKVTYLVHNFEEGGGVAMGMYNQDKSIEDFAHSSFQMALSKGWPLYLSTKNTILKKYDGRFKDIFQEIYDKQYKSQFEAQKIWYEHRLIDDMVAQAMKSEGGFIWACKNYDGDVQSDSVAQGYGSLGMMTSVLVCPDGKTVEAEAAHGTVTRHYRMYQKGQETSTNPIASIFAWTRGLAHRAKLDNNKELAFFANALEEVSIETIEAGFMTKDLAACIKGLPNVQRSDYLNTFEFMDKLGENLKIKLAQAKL
UniProt O75874, whole entry, looked up, stated change not applied: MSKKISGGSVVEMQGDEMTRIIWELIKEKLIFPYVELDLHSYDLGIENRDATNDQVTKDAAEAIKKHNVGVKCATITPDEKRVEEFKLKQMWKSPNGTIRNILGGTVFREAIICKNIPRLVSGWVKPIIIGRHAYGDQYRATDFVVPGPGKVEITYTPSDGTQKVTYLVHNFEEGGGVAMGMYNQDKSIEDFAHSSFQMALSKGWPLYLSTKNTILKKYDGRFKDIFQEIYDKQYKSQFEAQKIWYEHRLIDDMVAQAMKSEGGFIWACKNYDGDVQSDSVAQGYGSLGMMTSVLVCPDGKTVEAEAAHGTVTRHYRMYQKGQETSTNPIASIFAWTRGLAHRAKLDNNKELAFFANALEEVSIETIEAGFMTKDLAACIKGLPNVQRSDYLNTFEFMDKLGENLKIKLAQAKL

Row | Structure (SMILES) | Potency | activity change, negative = inhibition
1 | CN(C1=C(N2CCCCC2)C(=O)c2ccccc2C1=O)c1ccccc1 | inconclusive: 22.4 µM [inhibitor, full curve] | 
2 | COc1cccc(C(C(=O)NC2CCCCC2)N(C(=O)c2cccs2)c2ccc3c(c2)OCO3)c1 (stereo not given) |  | inactive: -22.8%
3 | Cc1ccc([C@@H]2C3COCC=C3C(C#N)=C(N)C2(C#N)C#N)o1 (stereo not given in full) | inconclusive: 39.8 µM [inhibitor, partial curve, poor fit] | 
4 | O=C(O)CCn1c(=O)n(CCC(=O)O)c(=O)n(CCC(=O)O)c1=O |  | inactive: -3.97%
5 | COc1ccc(N(C(=O)c2snc(C(N)=O)c2N)C(C(=O)NC2CCCCC2)c2ccc(C)o2)cc1 (stereo not given) | inconclusive: 14.1 µM [inhibitor, full curve] | 
6 | Cc1cc(C)cc(N(C(=O)CNC(=O)c2ccco2)C(C(=O)NC2CCCCC2)c2cccnc2)c1 (stereo not given) | inconclusive: 44.7 µM [inhibitor, partial curve] | 
7 | Cc1ncc(CO)c2c1Oc1nc(-c3ccccc3F)nc(SCC(=O)N(C)c3ccccc3)c1C2 | inconclusive: 50.1 µM [inhibitor, single point] | 
8 | Cc1cc(C)cc(N(C(=O)Cc2cccs2)C(C(=O)NC2CCCC2)c2ccc(C)o2)c1 (stereo not given) | active: 3.98 µM | 
9 | Cc1nnsc1NC(=O)OCc1ccc(C(C)(C)C)cc1 |  | inactive: -2.62%
10 | CCCCC(=O)NC(c1ccc(OC)c(OC)c1)c1ccc2cccnc2c1O (stereo not given) |  | inactive: -18.7%
11 | COc1ccc(C2C(C#N)=C3NC(=O)c4c(sc5c4CCCCC5)N3C3=C2C(=O)CC(C)(C)C3)cc1 (stereo not given) |  | inactive: -19.6%
12 | C/C(=N\NC(N)=S)c1cc(-c2ccccc2)c(-c2ccccc2)s1 | inconclusive: 22.4 µM [inhibitor, full curve] | 
13 | COC(=O)c1ccc(NC(=O)C(c2ccccc2)N2Cc3ccccc3C2=O)cc1 (stereo not given) |  | inactive: -6%
14 | O=C(NC1CCCCC1)C(c1cccs1)N(C(=O)c1ccco1)c1ccc2c(c1)OCCO2 (stereo not given) | inconclusive: 20 µM [inhibitor, full curve] | 
15 | Cc1ccc(-c2nnc(Nc3ccc(F)cc3)c3ccccc23)cc1S(=O)(=O)NC(C)C | inconclusive: 12.6 µM [inhibitor, full curve] | 
16 | COc1ccc(-n2c(-c3ccc(Cl)cc3Cl)n[nH]c2=S)c(OC)c1 |  | inactive: -7.83%
17 | C[C@H]1CN([C@@H](C)CO)C(=O)CCCn2nncc2CO[C@H]1CN(C)S(=O)(=O)c1ccc(Oc2ccccc2)cc1 | inconclusive: 12.6 µM [inhibitor, full curve, poor fit] | 
18 | CCOC(=O)c1cc(-c2ccc(/C=C3/C(=O)N(c4ccc(C(=O)O)cc4)N=C3C)o2)ccc1Cl | active: 1.26 µM | 
19 | COc1cccc(N=NC2C(=O)N(C(N)=S)N=C2C)c1 (stereo not given) |  | inactive: -7.83%
20 | Cc1ccc(Nc2nc(CSc3nnc(-c4ccncc4)n3-c3ccccc3C)cs2)cc1 | inconclusive: 22.4 µM [inhibitor, full curve] | 

Molecules shown so far with fluorine, in the order listed:
Row | Structure (SMILES) | Potency | activity change, negative = inhibition
7 | Cc1ncc(CO)c2c1Oc1nc(-c3ccccc3F)nc(SCC(=O)N(C)c3ccccc3)c1C2 | inconclusive: 50.1 µM [inhibitor, single point] | 
15 | Cc1ccc(-c2nnc(Nc3ccc(F)cc3)c3ccccc23)cc1S(=O)(=O)NC(C)C | inconclusive: 12.6 µM [inhibitor, full curve] | 

Next part

Row | Structure (SMILES) | Potency | activity change, negative = inhibition
21 | O=C1c2[nH]nc(-c3ccc(F)cc3)c2C(c2ccccc2F)N1c1ccccc1 (stereo not given) | inconclusive: 28.2 µM [inhibitor, partial curve] | 
22 | O=S(=O)(/N=C(/Nc1ccc(Cl)c(S(=O)(=O)Nc2ccccc2Cl)c1)c1ccc(F)cc1)c1ccccc1 | inconclusive: 20 µM [inhibitor, partial curve] | 
23 | COc1ccc(OC)c(N(C(=O)c2snc(C(N)=O)c2N)C(C(=O)NCc2ccccc2)c2ccc(O)cc2)c1 (stereo not given) | active: 22.4 µM | 
24 | CC(C)(C)c1ccc(C2NC(=O)c3n[nH]c(-c4cccs4)c32)cc1 (stereo not given) | active: 39.8 µM | 
25 | COc1cc(N(C(=O)Cc2cccs2)C(C(=O)NC2CCCCC2)c2cccc(OC)c2OC)ccc1-n1cnnn1 (stereo not given) | inconclusive: 17.8 µM [inhibitor, full curve] | 
26 | S=C(Nc1cccc2ccccc12)NC1CCCCC1 |  | inactive: 4.85%
27 | CN1C=CC2=C(C#N)C(N)C(C#N)(C#N)[C@H](c3ccccc3)[C@H]2C1 (stereo not given in full) | inconclusive: 44.7 µM [inhibitor, partial curve] | 
28 | COc1ccc(Nc2c3c(nc4ccc(NC(=O)/C=C/c5cc(OC)c(OC)c(OC)c5)cc24)CCCC3)cc1OC | inconclusive: 12.6 µM [inhibitor, full curve] | 
29 | CC(C)C[C@@H](CN1CCC[C@@H]1CN1C(=O)C(=O)NC[C@@H]1Cc1ccccc1)N1C[C@H](Cc2ccccc2)N(CC2CCCCCC2)C(=O)C1=O | active: 20 µM | 
30 | COc1ccc(N(C(=O)c2ccco2)C(C(=O)NC2CCCC2)c2cccs2)cc1 (stereo not given) | inconclusive: 39.8 µM [inhibitor, partial curve] | 
31 | CCC(c1nnnn1C1CCCCC1)N(Cc1ccco1)Cc1cc2ccc(OC)cc2[nH]c1=O (stereo not given) | inconclusive: 20 µM [inhibitor, full curve] | 
32 | Cc1sc(NC(=O)c2ccco2)c(C(c2cccnc2)N2CCC(C)CC2)c1C (stereo not given) | inconclusive: 28.2 µM [inhibitor, full curve] | 
33 | CCOCCCN1C(=O)c2[nH]nc(-c3ccccc3O)c2C1c1ccc(CC)cc1 (stereo not given) | inconclusive: 35.5 µM [inhibitor, single point] | 
34 | CCCCC(C(=O)NC1CCCC1)N(C(=O)c1snc(C(N)=O)c1N)c1ccc(C)cc1 (stereo not given) | inconclusive: 35.5 µM [inhibitor, partial curve] | 
35 | NNC(=O)c1csc(Cc2c(Cl)sc3ccc(Cl)cc23)n1 |  | inactive: -10.9%
36 | O=C(NC1CCCCC1)C(c1ccc(Cl)cc1)N(C(=O)c1cnccn1)c1ccc2c(c1)OCO2 (stereo not given) | inconclusive: 44.7 µM [inhibitor, partial curve] | 
37 | O=C1NC[C@H](Cc2ccccc2)N(C[C@H]2CCCN2C[C@H](Cc2ccccc2)N2C[C@H](Cc3ccccc3)N(CC3CCCCC3)C(=O)C2=O)C1=O | inconclusive: 20 µM [inhibitor, full curve] | 
38 | COc1ccc(C2C(C#N)=C(N)N(c3sc4c(c3C#N)CCCC4)C3=C2C(=O)CC(C)(C)C3)cc1OC (stereo not given) |  | inactive: -24.7%
39 | Cc1ccc(CNC(=O)c2ccc(CSCc3c(F)cccc3Cl)o2)cc1 |  | inactive: -0.245%
40 | O=C(NCC1COc2ccccc2O1)c1c[nH]c2ccc(S(=O)(=O)N3CCOCC3)cc2c1=O (stereo not given) |  | inactive: 1.07%

From PubChem BioAssay AID624002 (National Center for Advancing Translational Sciences (NCATS), 2012)
